## Results of single-concentration screens

By UniProt entry, the sequences of proteins in these tests, tags left out.
UniProt P9WNZ1, whole entry: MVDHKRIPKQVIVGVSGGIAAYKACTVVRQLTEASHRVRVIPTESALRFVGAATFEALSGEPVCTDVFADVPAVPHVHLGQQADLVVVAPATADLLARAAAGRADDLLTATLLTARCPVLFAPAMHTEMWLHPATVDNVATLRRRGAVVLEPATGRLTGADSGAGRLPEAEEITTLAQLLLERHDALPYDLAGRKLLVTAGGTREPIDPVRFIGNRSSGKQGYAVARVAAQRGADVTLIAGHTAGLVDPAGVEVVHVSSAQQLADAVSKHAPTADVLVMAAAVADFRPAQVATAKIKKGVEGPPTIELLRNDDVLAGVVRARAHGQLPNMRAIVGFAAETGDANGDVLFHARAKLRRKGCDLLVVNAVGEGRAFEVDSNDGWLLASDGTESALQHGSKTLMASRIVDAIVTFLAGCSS

The values are deposited in ChEMBL (CHEMBL3988442, “University of Dundee, Small-Polar-MMV Screening Library” (2021)).

Each number is a percent effect as filed. The record does not define 0% and 100%; most values in the screen are far below 50% and negative numbers occur (in some assays of this library far below -100). This is an unselected part of the compounds tested. A dash means the value is not listed here; it may have been measured.

Toxoplasma: 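Assay of Toxoplasma gondii numbers, read through their beta-galactosidase reporter with a colour substrate. Concentration: 10 µM. The record gives no direction; the compounds picked for IC50 retests had high values, so higher reads as fewer parasites. Size under these conditions: about 67,000 compounds, about 260 of them at 50% or above in at least one test.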
CoaBC: 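Enzyme assay of CoaBC with a phosphate dye (Biomol Green) read at 650 nm. Target: Coenzyme A biosynthesis protein CoaBC, Mycobacterium tuberculosis (UniProt P9WNZ1). Tested at 30 µM. Higher reads as stronger inhibition, judged from the few compounds that gave an IC50. Most strong results did not repeat in a second test. Of about 67,000 compounds tested this way, about 40 (0.06%) reached 50% or more in at least one test.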

Compound,Toxoplasma,CoaBC
[H][C@@]12CS(=O)(=O)C[C@]1([H])N(S(=O)(=O)c1ccccc1)CCN2C(=O)COC,12.91,-
CC(C)CN1Cc2c(C(=O)N(C)C)ncn2-c2ccccc2S1(=O)=O,-1.775,7.712
O=C(Cc1ccsc1)N1CCc2ccc(=O)n(CC3CC3)c2CC1,-11.27,1.667
CC(C)n1c(=O)c2ccccc2n(CCN2CCCCC2)c1=O,-,0.6075
CN1CCCc2c1nc1c(c2N)CCCC1,-,-3.774
CSc1ccc(CNC(=O)C2CC(=O)N(C(C)(C)C)C2)cc1 (stereo not given),1.095,-3.086
COC(=O)c1ccc(Cl)c(NS(=O)(=O)c2cnn(C)c2)c1,-6.072,-5.159
CN1CCO[C@@H]2CN(C(=O)NCc3ccccc3)CC[C@@H]2C1,-,-1.975
Cc1nn(C)c(C)c1CCC(=O)N1CCCOC(Cn2cccn2)C1 (stereo not given),-1.1,-0.7212
CCN(CC)Cc1nnc2sc(-c3cc(C(C)C)[nH]n3)nn12,0.9392,0.4843
O=C(O)C(F)(F)F.[H][C@@]12CCN(CCc3ccccc3)C[C@]1([H])[C@H](C(=O)N1CCCC1)CCO2,11.52,-
CCOc1ccccc1C(=O)Oc1cc(=O)n2cccc(C)c2n1,15.72,2.532
CC(NCC(=O)N(C)C1CC1)c1ccc(S(C)(=O)=O)c(F)c1 (stereo not given),-2.5,7.004
CCc1ccc(CN(C)C(=O)c2ccc(CSc3nnc[nH]3)o2)nc1,-32.69,5.839
COCc1cn([C@@H]2c3ccccc3C3(CCNCC3)[C@H]2O)nn1,-0.756,-20.68
COCCN(C)Cc1cn(C)nc1-c1ccc2c(c1)OCCO2,-29.81,2.343
COc1cc(C)c(C(C)NC(=O)c2cccnc2N(C)C)cc1OC (stereo not given),-19.91,1.594
O=C(O)C(F)(F)F.[H][C@@]12C[C@@H](C(=O)NC)N(C)[C@]1([H])CN(C(=O)c1ccco1)C2,1.282,-
CN1CCOC(CNC(=O)CCCOCCc2ccccc2)C1 (stereo not given),-3.233,-1.813
COC[C@@H]1CCC[C@@]12CN(Cc1ccco1)CCO2,-,-2.506
O=C(Nc1ccccc1)[C@H]1C[C@@H]2CN(S(=O)(=O)c3ccccc3)C[C@H]1O2,-,1.003
COCCOc1ncccc1NCc1nc2ccccc2n1C,1.579,7.654
CCN(CC)C(=O)c1nc2c(s1)CCN(C(=O)CCC(=O)OC)CC2,-1.78,-
Oc1ccccc1-c1n[nH]c(C2CC2)n1,-32.49,0.5102
O=C(c1cccnc1)N1CCC2(CC1)COCCN(c1ncccn1)C2,-,3.822
Cc1ccsc1C(=O)N1CC(C(=O)NC(C)C)C2(CCOCC2)C1 (stereo not given),17.95,-4.421
Cc1noc(C2CCCN(C(=O)CCNc3ncccn3)C2)n1 (stereo not given),-7.355,6.316
CCCNCc1ccc(-c2ccnc3[nH]ccc23)cc1,1.064,4.943
O=C(O)C(F)(F)F.O=C(O)C(F)(F)F.[H][C@@]12CCN(c3ncccn3)[C@]1([H])CC[C@@H](C(=O)N1CCN(C)CC1)O2,11.54,-
CCCC(C(=O)NCCc1nc(C)cs1)N(C)C (stereo not given),13.6,2.066
CCN(C(=O)CCCOC)C(c1ccc(Cl)cc1)c1ccccn1 (stereo not given),-18.05,-7.252
Cc1nc(C)n(CC2CCCN(Cc3cccnc3)C2)n1 (stereo not given),-21.13,-2.851
CCc1oc2ccc(NS(C)(=O)=O)cc2c1C(=O)OC,2.33,5.948
CC(C)(CNc1ccccc1S(=O)(=O)C(F)F)N1CCOCC1,7.156,-2.273
c1cc2c(cc1CN1CCC(Cc3noc(C4CC4)n3)CC1)OCCO2,10.34,-5.051
CN(C)CCN1CCOCC2(C1)CN(Cc1ccsc1)CCO2.O=C(O)C(F)(F)F.O=C(O)C(F)(F)F.O=C(O)C(F)(F)F (stereo not given),2.274,-
O=C1[C@H]2CN(C3CCOC3)C[C@H]2CN1c1ccccc1 (stereo not given in full),-,2.664
COc1c(CNCCNC(=O)c2ccc(C)cc2)c(C(C)C)nn1C,9.604,6.378
COCCNC(=O)C1CN(Cc2ccncc2)Cc2ccnn2C1 (stereo not given),-,2.03
Cc1nc(C)n(C2CCCN(C(=O)Cc3n[nH]c4ccccc34)C2)n1 (stereo not given),5.506,-3.133
Cc1ccc(C(C(=O)NCc2n[nH]c(N)n2)N(C)C)cc1 (stereo not given),12.38,3.23
O=C(c1n[nH]cc1Cl)N1CCOCC1,1.277,-2.57
COc1ccc(-c2nc(CN3CCOCS3(=O)=O)c(C)o2)cc1,-3.194,-3.125
COc1c(C2CCCN2C(=O)c2c(C)noc2C(C)C)c(C)nn1C (stereo not given),-29.04,2.887

The first 6 entries again:

Compound,Toxoplasma,CoaBC
[H][C@@]12CS(=O)(=O)C[C@]1([H])N(S(=O)(=O)c1ccccc1)CCN2C(=O)COC,12.91,-
CC(C)CN1Cc2c(C(=O)N(C)C)ncn2-c2ccccc2S1(=O)=O,-1.775,7.712
O=C(Cc1ccsc1)N1CCc2ccc(=O)n(CC3CC3)c2CC1,-11.27,1.667
CC(C)n1c(=O)c2ccccc2n(CCN2CCCCC2)c1=O,-,0.6075
CN1CCCc2c1nc1c(c2N)CCCC1,-,-3.774
CSc1ccc(CNC(=O)C2CC(=O)N(C(C)(C)C)C2)cc1 (stereo not given),1.095,-3.086